Data reported in paper PMC8706149 (International Journal of Molecular Sciences, 2021).
Values after ≈ are worked out from the molar mass of the structure shown.

Test system: Staphylococcus aureus ATCC 6538P
Experiment: MIC, broth microdilution
Format: cell-based
Conditions: ATCC6538P, read-out: MIC (µg/mL) Staphylococcus aureus ATCC 6538P
Method: All the labeled peptide after purification were lyophilized and dissolved in water. Purity was veri-fi e d by RP-HPLC on C18 column . Pepti de i dentity was assessed by mass spectrometry anal yses (Supplementary Methods, section S4; Table S1).
S6. Antimicrobial activity assay
MIC (Minimum Inhibitory Concentration) analyses were performed by broth microdilution method for antimicrobial peptides previously described wi th mi nor modi ficati ons. In detai l s, assays were carried out in Nutrient Broth 0.5x (Difco, Detroit, MI, US A ) usi ng st e r i le 96-well polypropylene mi-croti ter pl ates (cat. 3879, C ostar C orp., C ambri dge, MA , US A ). Bacterial strains were grown in Luria-Bertani (LB) medium overnight at 37°C and then diluted in Nutrient Broth at a final concentration of ~5x10^5 CFU/mL per well. Twofold serial dilutions of peptides were carried out in the test wells […]
Plates were incubated overnight at 37°C. MIC value was taken as the lowest concentration at which growth was inhibited. Three independent experiments we r e performed for each MIC value. […] MIC values were measured on Gram-negative ( E scherichia coli ATCC 25922) and Gram-po si t i ve st r ains (Sta phyl o co ccus a ure us ATCC 6538P and Bacillus globigii TNO BMO13) . […]

For CN[C@H](CC(C)C)C(=O)N[C@H]1C(=O)N[C@@H](CC(N)=O)C(=O)N[C@H]2C(=O)N[C@H]3C(=O)N[C@H](C(=O)N[C@H](C(=O)O)c4cc(O)cc(O)c4-c4cc3ccc4O)[C@H](O)c3ccc(c(Cl)c3)Oc3cc2cc(c3O[C@@H]2O[C@H](CO)[C@@H](O)[C@H](O)[C@H]2O[C@H]2C[C@](C)(N)[C@H](O)[C@H](C)O2)Oc2ccc(cc2Cl)[C@H]1O [Vancomycin, vancomycin], the MIC was 0.5 µg/mL (≈ 0.345 µM).
